These are yes or no findings as the source states them, for the method shown. A result given as binding can be weak or reduced; the word gives no strength.
Molecular target: Cdc42 (Pyricularia oryzae) (UniProt G4NC11)
Assay: two-hybrid

B1: Mst50 (protein, UniProt G4N525 1-489)
chain: MSFNTGTAYAESDADDEYERDIHDSSPIDATDAEASPTESDPPSNEHTPTTYGYRSSADRLPETIISEWTADECADFIATIGLEQYSTRFVENEIVGEALVALLHDDLKSMGIHSVGHRLTILRSVYDVKKAQDVPVESDHYVPLTAENEGQYATAKDIKNLVEQLRLRDERMHLFEQDFRRLAEDFRRLREDMLPALRLAKDAQQPLPHLNNGSAYAGYDTTISPPAPTPSTSGQSGGGLKRQWSTKKIMLGTTPKATSPTHLQTAHDRSLAEQTLDPSSAAERAVMSSSHLAINGLVPSATSPSYPSINIPSPTSPPNTLGGATLASRSYRSDQPTPSSRSTFAESDYAHPGGRDKQPVAPRRMQTPAPDTPSGSNASVEIFKSFRVSMDDPCYKVLPAALKKYQINAPWDQYALYIVYGDQERCLGLEEKPLILFKQLDKEGKKPMFMLRKTNNAQVDIGNEAPGSAGLGSARGAATGYDPPGGII
  binding: binds
